Some of these results come from one statement about several compounds together.
Target: T1, PPARδ (Homo sapiens, UniProt Q03181)
T1 construct: transfection mixture (250 μL/well) containing 0.03 μg of GAL4-hPPARδ LBD; expressed in transfected cells; host or cells: CV-1 cells
T1 sequence (Q03181 211-439 limits assumed): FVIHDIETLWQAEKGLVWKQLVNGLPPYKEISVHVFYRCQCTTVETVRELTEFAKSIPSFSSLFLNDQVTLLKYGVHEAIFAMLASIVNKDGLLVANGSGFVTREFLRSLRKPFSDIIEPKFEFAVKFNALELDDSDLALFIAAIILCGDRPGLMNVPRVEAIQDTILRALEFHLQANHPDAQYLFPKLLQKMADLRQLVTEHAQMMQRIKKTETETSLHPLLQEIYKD
Test: PPARδ transactivation activity (GAL4-hPPARδ LBD luciferase reporter in CV-1 cells)
Assay type: cell-based
Conditions: for PPARδ transactivation activity (statement in words on Tables 25 and 26): 40 hours incubation, relative to L-165041 = 100%
Procedure: PPARδ transactivation activity of the compound of the invention was measured in the manner described below.
A receptor expression plasmid (GAL4-hPPARδ LBD), a reporter plasmid (UASx4-TK-LUC) and a β-galactosidase (β-GAL) expression plasmid were transfected into CV-1 cells by using DMRIE-C reagent. Subsequently, the cells were incubated for 40 hours in the presence of a compound of the invention, and then the luciferase and β-GAL activities of the cell lysate were assayed.
(1) Measurement of PPARα, γ, δ transactivation activity
CV-1 cells were obtained from Tohoku University Aging Medical Laboratory, Medical Cell Collection Center. All test compounds were dissolved in dimethylsulfoxide (DMSO). Final concentration of DMSO was 0.1%.
CV-1 cells were seeded in 24 well culture plates at 2×10^5 cells per well, and cultured for 24 hours OPTI-MEM I Reduced Serum Medium (Life Technologies, 500 μL/well) containing 4%-fetal bovine serum (FBS). After washing with OPTI-MEM, transfection mixture (250 μL/well) containing 0.03 μg of GAL4-hPPARδ LBD, 0.25 μg of UASx4-TK-LUC, 0.35 μg of βGAL, and 2 μL of lipofection reagent, DMRIE-C (Life Technologies) were added. The cells were incubated for 5 hours at 37° C. […]
The culture medium was removed and the cells were washed with PBS twice. A solubilizing buffer (100 μL/well) containing 25 mM Tris-PO4 (pH 7.8), 15%v/v glycerol, 2% CHAPS, 1% Lecithin, 1% BSA, 4 mM EGTA (pH 8.0), 8 mM MgCl2, 1 mM DTT was added. After the incubation for 10 minutes at room temperature, a portion (20 μL) of the solution was transferred into a 96-well plate. Subsequently, 100 μL of luciferase substrate solution (Piccagene: available from Nippon Gene Co., Ltd.) was added, and a luminous intensity per one second (luciferase activity) was measured using a microluminoreader (Type MLR-100, Corona Electrics Co., Ltd.). Each luciferase activity was corrected by the transfection efficiency which was calculated from β-galactosidase activity. The assay method of β-galactosidase activity was as follows: A portion (50 μL) of the solubilized sample was transferred into another 96-well plate; 100 μL of ONPG (2-nitrophenyl-β-galactopyranoside) solution was added and incubated for 5 minutes at room temperature. 50 μL of a reaction stopping solution (1M sodium carbonate solution) was added. Then the absorbance at 414 nm was measured.

Row | Structure (SMILES) | PPARδ transactivation activity (statement in words on Tables 25 and 26) | PPARδ transactivation activity (statement in words on Table 26) (compounds at 10^-7 M except PPARδ of Examples 5, 6 and 7 at 10^-8 M, control 10^-4 M L-165041)
1 | C=CCc1c(OCC(=O)O)ccc2c(CCc3nc(-c4ccc(Cl)cc4Cl)oc3C(C)C)noc12 [Example 1, [[7-Allyl-3-[2-[2-(2,4-dichlorophenyl)-5-isopropyl-4-oxazolyl]ethyl]-1,2-benzisoxazol-6-yl]oxy]acetic acid] | selective and potent PPARδ transactivation activities | 
2 | C=CCc1c(OC(C)(C)C(=O)O)ccc2c(CCc3nc(-c4ccc(Cl)cc4Cl)oc3C(C)C)noc12 [Example 2, 2-[[7-Allyl-3-[2-[2-(2,4-dichlorophenyl)-5-isopropyl-4-oxazolyl]ethyl]-1,2-benzisoxazol-6-yl]oxy]-2-methylpropionic acid] | selective and potent PPARδ transactivation activities | 
3 | Cc1cc2c(CCc3nc(-c4ccc(Cl)cc4Cl)oc3C(C)C)noc2cc1OCC(=O)O [Example 9, (3-[2-[2-(2,4-Dichlorophenyl)-5-isopropyl-4-oxazolyl]ethyl]-5-methyl-1,2-benzisoxazol-6-yl]oxyacetic acid] | selective and potent PPARδ transactivation activities | potent and selective PPARδ transactivation activities
